Results are given in words; binding and its absence hold for the method and conditions named. Binding seen in cells or lysates may run through a third protein. Tags and fused reporters may be left off the sequences shown.
Biological target: T1, HA-tagged PEAK3^FL-S69A mutant (human) (UniProt Q6ZS72)
T1 sequence: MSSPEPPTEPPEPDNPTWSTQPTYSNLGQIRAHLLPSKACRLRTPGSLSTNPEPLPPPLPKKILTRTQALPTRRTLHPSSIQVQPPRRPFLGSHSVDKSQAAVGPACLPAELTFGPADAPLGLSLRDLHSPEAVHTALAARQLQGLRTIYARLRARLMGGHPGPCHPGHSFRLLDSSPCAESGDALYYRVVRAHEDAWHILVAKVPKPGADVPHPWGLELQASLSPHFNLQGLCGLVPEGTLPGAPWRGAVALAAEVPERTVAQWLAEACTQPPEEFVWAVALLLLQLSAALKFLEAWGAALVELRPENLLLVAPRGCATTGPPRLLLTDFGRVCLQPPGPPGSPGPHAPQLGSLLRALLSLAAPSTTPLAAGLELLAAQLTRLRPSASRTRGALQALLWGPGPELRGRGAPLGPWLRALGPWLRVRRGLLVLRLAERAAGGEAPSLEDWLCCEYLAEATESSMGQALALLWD
Assay: co-IP

## endogenous 14-3-3 (HEK293) (human (endogenous in HEK293))
  binding: no binding

From article doi:10.1101/2022.09.01.506260
